These results are taken from patent publication US20020156009A1 (published 2002).

The chains behind the UniProt entries cited, without tags or fusion partners. Residues count along the entry.
UniProt P14778, residues 18-569: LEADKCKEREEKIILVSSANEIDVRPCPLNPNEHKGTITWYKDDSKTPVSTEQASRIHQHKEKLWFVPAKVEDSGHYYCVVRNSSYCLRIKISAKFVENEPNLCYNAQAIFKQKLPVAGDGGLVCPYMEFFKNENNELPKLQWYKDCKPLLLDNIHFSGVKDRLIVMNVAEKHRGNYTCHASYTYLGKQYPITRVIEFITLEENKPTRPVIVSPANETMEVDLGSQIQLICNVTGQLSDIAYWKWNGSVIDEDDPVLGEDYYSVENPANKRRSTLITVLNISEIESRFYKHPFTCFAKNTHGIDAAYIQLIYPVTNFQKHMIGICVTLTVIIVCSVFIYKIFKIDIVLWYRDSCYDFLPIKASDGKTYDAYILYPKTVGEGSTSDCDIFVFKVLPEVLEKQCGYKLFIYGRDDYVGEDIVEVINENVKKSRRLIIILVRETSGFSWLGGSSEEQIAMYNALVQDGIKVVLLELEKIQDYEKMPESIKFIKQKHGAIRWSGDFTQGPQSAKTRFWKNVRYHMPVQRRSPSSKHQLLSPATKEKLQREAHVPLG

In test [1] the target is interleukin-1 (IL-1) receptor on human cells (human) (UniProt P14778). Kind of test: FACS, 5 nM IL-1 Hy2 on 10^6 human fibroblast cells (CCD 1089), BS3 crosslinker, anti-express tag antibody and PE anti-mouse Ig. (A flow cytometer gives signals particle by particle.)
The target in test [2] is T1, IL-1 receptor on murine cell lines D10 and RAW 264.7 (murine) (UniProt P13504).
T1 sequence (looked up): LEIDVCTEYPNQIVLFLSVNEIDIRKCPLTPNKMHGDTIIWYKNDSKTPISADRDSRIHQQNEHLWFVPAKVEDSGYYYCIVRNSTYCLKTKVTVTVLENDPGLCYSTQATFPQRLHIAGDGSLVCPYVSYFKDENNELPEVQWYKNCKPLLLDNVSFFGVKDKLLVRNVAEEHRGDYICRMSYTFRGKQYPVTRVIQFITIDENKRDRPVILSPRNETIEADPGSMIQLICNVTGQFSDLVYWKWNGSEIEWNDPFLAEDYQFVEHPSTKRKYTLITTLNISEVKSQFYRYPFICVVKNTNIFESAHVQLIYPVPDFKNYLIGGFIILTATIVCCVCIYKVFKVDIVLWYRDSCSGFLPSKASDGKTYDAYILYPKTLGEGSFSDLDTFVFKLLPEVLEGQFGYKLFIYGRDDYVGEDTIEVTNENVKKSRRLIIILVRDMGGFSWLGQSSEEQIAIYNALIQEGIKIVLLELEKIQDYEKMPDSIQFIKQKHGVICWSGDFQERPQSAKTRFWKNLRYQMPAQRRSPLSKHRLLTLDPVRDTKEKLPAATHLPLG
The test can be described thus: FACS on murine cell lines D10 and RAW 264.7.

These are yes or no findings as the source states them, for the method shown. Some binding calls cover weakened binding; strength is not graded here. Where a sequence is shown, tags or fusion partners need not be part of it.

B1: recombinant tagged IL-1 Hy2 (ligand, not shown: small tags and cut ends)
chain: MCSLPMARYYIIKYADQKALYTRDGQLLVGDPVADNCCAEKICTLPNRGLDRTKVPIFLGIQGGSRCLACVETEEGPSLQLEDVNIEELYKGGEEATRFTFFQSSSGSAFRLEAAAWPGWFLCGPAEPQQPVQLTKESEPSARTKFYFEQSW
Turning to B1, the binding entry in test [1] and in test [2] was “binds” in each case.
